We go through 35 compounds from the supplement of paper PMC5662767.

The assay concerns Drosophila S2 cl14 SmoIP sensor cells. Put plainly: normalized SmoIP GFP fluorescence (untreated unstimulated = 0%, untreated Hh-stimulated = 100%); higher = more Smo activation sensor fluorescence. The conditions noted are these: compound concentration: 15 uM, 24 h.
Setting [1] is: stimulation: Hh conditioned medium (+Hh).
The mark [2] stands for this setting: stimulation: mock conditioned medium (-Hh).

Counter-ions that a name gives are not always drawn. The list shows a part of the results. Plates or batches differ in their baseline, so values are only roughly comparable.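 A clonal Drosophila S2 line expresses Smoothened bearing circularly permuted GFP in its cytoplasmic tail; Hh-driven phosphorylation opens an inhibitory loop, making it fluoresce. Flow cytometry measured per-cell fluorescence, normalized to Hh-stimulated untreated cells. Hits were inhibitor groups with shared pathway targets that consistently shifted fluorescence, not individual compounds.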

Take `CC(C)c1cc(C(C)C)c(CC(=O)NS(=O)(=O)Oc2c(C(C)C)cccc2C(C)C)c(C(C)C)c1` [Avasimibe(CI-1011)]: the “normalized SmoIP GFP fluorescence” value reads like this: under setting [1], 105%; under setting [2], 47.2%.
On the same counts, the results for `CN(C)CCC(c1ccc(Cl)cc1)c1ccccn1` (stereo not given) [Chlorpheniramine-maleate] are 129% and 0.334%.
Consider `Cc1c(Cl)cccc1Nc1ccccc1C(=O)O` [tolfenamic-acid], for which the “normalized SmoIP GFP fluorescence” value was 109% under setting [1] and -7.78% under setting [2].
`CC(=O)Oc1ccccc1C(=O)O` [aspirin-acetylsalicylic-acid]: the “normalized SmoIP GFP fluorescence” value was 106% under setting [1] and -7.76% under setting [2].
On the same counts, the results for `COc1ccnc2[nH]cc(C(=O)C(=O)N3CCN(C(=O)c4ccccc4)C[C@H]3C)c12` are 127% and -12.7%.
For `O=c1c(-c2ccc(O)cc2)coc2cc(O)cc(O)c12` [Genistein], in that order: 122% and 2.97%.
For `CC(=O)O/N=C1\C(=O)N(Cc2cc(Cl)ccc2Cl)c2ccc(Cl)cc21`, in that order: 116% and 7.75%.
As to `c1ccc(CC2=NCCN2)cc1` [tolazoline-hcl], the “normalized SmoIP GFP fluorescence” value is 109% under setting [1] and -4.01% under setting [2].
On the same counts, the results for `CC(=O)Oc1cc2c(s1)CCN(C(C(=O)C1CC1)c1ccccc1F)C2` (stereo not given) [Prasugrel] are 123% and 9%.
On the same counts, the results for `Cc1ccc(Nc2nccc(N(C)c3ccc4c(C)n(C)nc4c3)n2)cc1S(N)(=O)=O` [pazopanib] are 108% and 35.9%.
For the compound `COc1ccc([C@@H]2CC(=O)c3c(O)cc(O)cc3O2)cc1O` [Hesperetin], the “normalized SmoIP GFP fluorescence” value by setting is: under setting [1], 116%; under setting [2], -15.8%.
For `N#Cc1ccc2[nH]c(O)c(-c3ccc(CN4CCOCC4)cn3)c2c1`, in that order: 208% and 60.5%.
On to `CC1=C(C(=O)OC(C)C)C(c2cccc([N+](=O)[O-])c2)C(C(=O)OC2CN(C(c3ccccc3)c3ccccc3)C2)=C(N)N1` (stereo not given) [azelnidipine], for which the “normalized SmoIP GFP fluorescence” value under setting [1] was 129% and the “normalized SmoIP GFP fluorescence” value under setting [2] worked out at 22.5%.
With `CN(C)Cc1cccc(N/C(=C2\C(=O)Nc3cc(C(N)=O)ccc32)c2ccccc2)c1`, the “normalized SmoIP GFP fluorescence” value runs as follows: under setting [1], 132%; under setting [2], 25.3%.
Consider `Cc1cccc(Nc2cc(Cl)nc(SCC(=O)O)n2)c1C`, for which the “normalized SmoIP GFP fluorescence” value reads like this: under setting [1], 157%; under setting [2], 94.6%.
On the same counts, the results for `C[C@]1(O)C[C@@H](c2nc(-c3ccc4ccc(-c5ccccc5)nc4c3)c3c(N)nccn32)C1` are 182% and 90.3%.
For the compound `COc1cc2ncnc(Sc3nnc(C)s3)c2cc1OC` [sklb1002], the “normalized SmoIP GFP fluorescence” value under setting [1] turned out to be 163% and the “normalized SmoIP GFP fluorescence” value under setting [2] stood at 18.4%.
As to `CC(C)c1cnn2c(NCc3ccccc3)cc(NCCCCCCN)nc12`, the “normalized SmoIP GFP fluorescence” value reads like this: under setting [1], 152%; under setting [2], 91.6%.
Consider `OC(CCN1CCCCC1)(c1ccccc1)C1CC2C=CC1C2` (stereo not given) [Biperiden-hydrochloride], for which the “normalized SmoIP GFP fluorescence” value under setting [1] worked out at 141% and the “normalized SmoIP GFP fluorescence” value under setting [2] was 12.4%.
For the compound `NC(=O)C(c1ccccc1)(c1ccccc1)[C@@H]1CCN(CCc2ccc3c(c2)CCO3)C1` [darifenacin-hydrobromide], the “normalized SmoIP GFP fluorescence” value turned out to be 154% under setting [1] and 27.2% under setting [2].
For `O=C(Nc1cccc(Cl)c1)Nc1ncc(CCNc2ncnc3ccsc23)s1`, the “normalized SmoIP GFP fluorescence” value under setting [1] turned out to be 109% and the “normalized SmoIP GFP fluorescence” value under setting [2] is 78.8%.
On to `CN(C)CCC[C@@]1(c2ccc(F)cc2)OCc2cc(C#N)ccc21` [escitalopram-oxalate], for which the “normalized SmoIP GFP fluorescence” value by setting is: under setting [1], 131%; under setting [2], 8.94%.
For `O=C(O)CCCN1CCC(O[C@@H](c2ccc(Cl)cc2)c2ccccn2)CC1` [bepotastine-besilate], in that order: 117% and -2.93%.
On the same counts, the results for `COc1ccc(CNCc2cccc3ccccc23)cc1` are 126% and 9.68%.
On to `COc1cc(NC(=O)c2ccc(-c3ccc(Cl)cc3)o2)cc(OC)c1`, for which the “normalized SmoIP GFP fluorescence” value amounted to 141% under setting [1] and 33.9% under setting [2].
As to `N#Cc1cc(CN2CCC(Nc3ncnc4sc(Cl)cc34)CC2)ccc1F`, the “normalized SmoIP GFP fluorescence” value amounted to 174% under setting [1] and 5.38% under setting [2].
On to `COc1ccc2cc(CCC(C)=O)ccc2c1` [nabumetone], for which the “normalized SmoIP GFP fluorescence” value reads like this: under setting [1], 112%; under setting [2], -3.79%.
Take `CC(=O)Oc1cc(C(F)(F)F)ccc1C(=O)O` [triflusal]: the “normalized SmoIP GFP fluorescence” value was 117% under setting [1] and -1.51% under setting [2].
On to `Clc1ccc2c(c1)CCc1cccnc1C2=C1CCNCC1` [desloratadine], for which the “normalized SmoIP GFP fluorescence” value under setting [1] amounted to 139% and the “normalized SmoIP GFP fluorescence” value under setting [2] came to 31%.
`O=C(C[S+]([O-])Cc1ccco1)NC/C=C\COc1cc(CN2CCCCC2)ccn1` (stereo not given) [lafutidine]: the “normalized SmoIP GFP fluorescence” value came out at 141% under setting [1] and 6.1% under setting [2].
For `CCCCCCCCCCCC1=C(O)C(=O)C=C(O)C1=O` [embelin], the “normalized SmoIP GFP fluorescence” value was 154% under setting [1] and 13.5% under setting [2].
On the same counts, the results for `Oc1cc(O)cc(/C=C/c2ccc(O)c(O)c2)c1` [piceatannol] are 153% and 14.4%.
Consider `CCc1cc(Nc2nccc(-c3c(-c4ccc(OC)c(C(=O)Nc5c(F)cccc5F)c4)nc4ccccn34)n2)c(OC)cc1N1CCC(N2CCN(S(C)(=O)=O)CC2)CC1`, for which the “normalized SmoIP GFP fluorescence” value is 211% under setting [1] and 89.5% under setting [2].
With `O=C1NC(=O)C(c2ccccc2[N+](=O)[O-])=C1Nc1ccc(O)c(Cl)c1`, the “normalized SmoIP GFP fluorescence” value was 160% under setting [1] and 0.605% under setting [2].
On to `CCN1CCN(c2ccc(Nc3cc(N(C)C(=O)Nc4c(Cl)c(OC)cc(OC)c4Cl)ncn3)cc2)CC1`, for which the “normalized SmoIP GFP fluorescence” value came out at 192% under setting [1] and 42.8% under setting [2].
